{"source": "PubChem BioAssay AID1259308, NCATS – 2017", "purpose": "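Candidate targets for better recombinant protein yield in mammalian cells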 (primary screen)", "cell system": "human HEK293 embryonic kidney cells stably expressing firefly luciferase (HEK-CMV-Luc2-Hygro)", "knock-down reagent": "single siRNA against human genes, 0.8 pmol siRNA per well", "time to read-out": "72 h", "detection": "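Reporter luminescence and viable-cell signal on separate replicate plates, given as percent of non-targeting control and median/MAD z-scores, plus per-cell luciferase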", "scale": "total luciferase, z-score: higher = more reporter protein produced", "active means": "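An siRNA counts as active if its total luciferase robust z-score exceeds 3; genes with two or more such siRNAs out of three were retested with fresh siRNAs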", "meaning of the calls": "active = raised luciferase; inactive = no rise", "note": "The whole screen tested about 59,000 reagents; shown is a part drawn at random. Over the whole deposit, about 1,510 (2.6%) were called active. 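Calls use total luciferase alone and ignore viability, so some active siRNAs may act by altering cell number.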 Unmarked entries are inactive. Further read-outs or replicates are left out here."}
{"Target gene": "PLA2G4F (phospholipase A2 group IVF)", "PubChem SID": "SID160762282", "total luciferase, z-score": -0.534}
{"Target gene": "PLA2G4F (phospholipase A2 group IVF)", "PubChem SID": "SID160762283", "total luciferase, z-score": -0.205}
{"Target gene": "PLA2G4F (phospholipase A2 group IVF)", "PubChem SID": "SID160762284", "total luciferase, z-score": 0.973}
{"Target gene": "ITK (IL2 inducible T cell kinase)", "PubChem SID": "SID160731151", "total luciferase, z-score": -0.182}
{"Target gene": "ITK (IL2 inducible T cell kinase)", "PubChem SID": "SID160776038", "total luciferase, z-score": -0.791}
{"Target gene": "ITK (IL2 inducible T cell kinase)", "PubChem SID": "SID160776039", "total luciferase, z-score": -0.193}
{"Target gene": "SULT1C3 (sulfotransferase family 1C member 3)", "PubChem SID": "SID160768117", "total luciferase, z-score": 0.24}
{"Target gene": "SULT1C3 (sulfotransferase family 1C member 3)", "PubChem SID": "SID160768118", "total luciferase, z-score": 0.288}
{"Target gene": "SULT1C3 (sulfotransferase family 1C member 3)", "PubChem SID": "SID160768119", "total luciferase, z-score": -0.297}
{"Target gene": "DMP1 (dentin matrix acidic phosphoprotein 1)", "PubChem SID": "SID160754985", "total luciferase, z-score": 0.274}
{"Target gene": "DMP1 (dentin matrix acidic phosphoprotein 1)", "PubChem SID": "SID160754996", "total luciferase, z-score": -1.8}
{"Target gene": "DMP1 (dentin matrix acidic phosphoprotein 1)", "PubChem SID": "SID160755007", "total luciferase, z-score": 0.178}
{"Target gene": "RFLNB (refilin B)", "PubChem SID": "SID160765215", "total luciferase, z-score": -1.49}
{"Target gene": "RFLNB (refilin B)", "PubChem SID": "SID160765216", "total luciferase, z-score": 0.754}
{"Target gene": "RFLNB (refilin B)", "PubChem SID": "SID160765217", "total luciferase, z-score": 0.561}

An excerpt taken from the entries so far:
{"Target gene": "ITK (IL2 inducible T cell kinase)", "PubChem SID": "SID160731151", "total luciferase, z-score": -0.182}
{"Target gene": "ITK (IL2 inducible T cell kinase)", "PubChem SID": "SID160776038", "total luciferase, z-score": -0.791}

More results:
{"Target gene": "OR4S1 (olfactory receptor family 4 subfamily S member 1)", "PubChem SID": "SID160762409", "total luciferase, z-score": 0.0533}
{"Target gene": "OR4S1 (olfactory receptor family 4 subfamily S member 1)", "PubChem SID": "SID160762410", "total luciferase, z-score": 0.242}
{"Target gene": "OR4S1 (olfactory receptor family 4 subfamily S member 1)", "PubChem SID": "SID160762411", "total luciferase, z-score": 0.797}
{"Target gene": "JHY (junctional cadherin complex regulator)", "PubChem SID": "SID160749636", "total luciferase, z-score": -0.373}
{"Target gene": "JHY (junctional cadherin complex regulator)", "PubChem SID": "SID160749637", "total luciferase, z-score": 0.244}
{"Target gene": "JHY (junctional cadherin complex regulator)", "PubChem SID": "SID160749638", "total luciferase, z-score": 0.755}
{"Target gene": "PACRG (parkin coregulated)", "PubChem SID": "SID160757391", "total luciferase, z-score": -0.102}
{"Target gene": "PACRG (parkin coregulated)", "PubChem SID": "SID160757392", "total luciferase, z-score": 0.258}
{"Target gene": "PACRG (parkin coregulated)", "PubChem SID": "SID160757393", "total luciferase, z-score": -1.02}
{"Target gene": "CRYM (crystallin mu)", "PubChem SID": "SID160748837", "total luciferase, z-score": -1.57}
{"Target gene": "CRYM (crystallin mu)", "PubChem SID": "SID160748848", "total luciferase, z-score": -0.00852}
{"Target gene": "CRYM (crystallin mu)", "PubChem SID": "SID160748857", "total luciferase, z-score": -2.15}
{"Target gene": "GLI3 (GLI family zinc finger 3)", "PubChem SID": "SID160771428", "total luciferase, z-score": 0.0119}
{"Target gene": "GLI3 (GLI family zinc finger 3)", "PubChem SID": "SID160771438", "total luciferase, z-score": -1.37}
{"Target gene": "GLI3 (GLI family zinc finger 3)", "PubChem SID": "SID160771448", "total luciferase, z-score": 2.1}
{"Target gene": "DEGS1 (delta 4-desaturase, sphingolipid 1)", "PubChem SID": "SID160720337", "total luciferase, z-score": 0.791}
{"Target gene": "DEGS1 (delta 4-desaturase, sphingolipid 1)", "PubChem SID": "SID160720338", "total luciferase, z-score": -0.0504}
{"Target gene": "DEGS1 (delta 4-desaturase, sphingolipid 1)", "PubChem SID": "SID160720341", "total luciferase, z-score": 0.266}
